Test results published in paper PMC6986101.
No constants are given. Whether binding was seen depends on the method and setting. Binding seen in cells or lysates may run through a third protein. Here binding means that the protein was enriched with, or labelled near, the bait; the list need not be complete. A no says only that the protein was not detected with the bait. Where a sequence is shown, tags or fusion partners need not be part of it.

Target: T1, WT TRAP1 with C-terminal HA tag (pcDNA3.1 (+) MTS-TRAP1-HA) (human), Q12931
T1 chain: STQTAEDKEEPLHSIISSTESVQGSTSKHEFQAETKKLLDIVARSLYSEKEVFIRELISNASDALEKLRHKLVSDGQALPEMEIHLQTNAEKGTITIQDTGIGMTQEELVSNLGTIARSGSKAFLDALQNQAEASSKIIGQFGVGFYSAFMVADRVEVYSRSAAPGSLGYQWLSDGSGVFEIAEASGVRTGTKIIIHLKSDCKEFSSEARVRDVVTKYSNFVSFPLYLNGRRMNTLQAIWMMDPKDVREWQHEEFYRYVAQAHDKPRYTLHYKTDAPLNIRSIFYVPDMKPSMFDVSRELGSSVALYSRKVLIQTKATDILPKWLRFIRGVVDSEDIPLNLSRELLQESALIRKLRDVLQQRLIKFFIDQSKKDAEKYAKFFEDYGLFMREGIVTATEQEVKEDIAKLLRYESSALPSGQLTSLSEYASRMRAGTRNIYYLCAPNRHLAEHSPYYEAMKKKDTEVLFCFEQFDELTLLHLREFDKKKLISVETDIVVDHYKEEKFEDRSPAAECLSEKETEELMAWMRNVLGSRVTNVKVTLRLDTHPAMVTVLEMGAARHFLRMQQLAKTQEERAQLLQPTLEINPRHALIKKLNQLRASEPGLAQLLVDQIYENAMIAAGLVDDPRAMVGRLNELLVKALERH
Test: affinity purification with mass spectrometry; anti-HA IP (Dynabeads-Protein G) from 1 mg clarified mitochondrial lysate of transfected HEK293T cells, overnight at 4 °C; lysis buffer 10 mM Tris-HCl pH 7.5, 50 mM NaCl, 1 mM EDTA, 1 mM DTT, 10% glycerol, 10 mM sodium molybdate, 0.1% Triton X-100; LC/MS/MS; list filtered for mitochondrial proteins with 4 or more unique peptides
Settings: remark: other sources report otherwise

B1: PINK1, Q9BXM7 78-581 (protein)
chain: AARLQRQFVVRAWGCAGPCGRAVFLAFGLGLGLIEEKQAESRRAVSACQEIQAIFTQKSKPGPDPLDTRRLQGFRLEEYLIGQSIGKGCSAAVYEATMPTLPQNLEVTKSTGLLPGRGPGTSAPGEGQERAPGAPAFPLAIKMMWNISAGSSSEAILNTMSQELVPASRVALAGEYGAVTYRKSKRGPKQLAPHPNIIRVLRAFTSSVPLLPGALVDYPDVLPSRLHPEGLGHGRTLFLVMKNYPCTLRQYLCVNTPSPRLAAMMLLQLLEGVDHLVQQGIAHRDLKSDNILVELDPDGCPWLVIADFGCCLADESIGLQLPFSSWYVDRGGNGCLMAPEVSTARPGPRAVIDYSKADAWAVGAIAYEIFGLVNPFYGQGKAHLESRSYQEAQLPALPESVPPDVRQLVRALLQREASKRPSARVAANVLHLSLWGEHILALKNLKLDKMVGWLLQQSAATLLANRLTEKCCVETKMKMLFLANLECETLCQAALLLCSWRAAL
binding: no binding
